PMC11679574, “Intestinal Cells-on-Chip for Permeability Studies” (Micromachines, 2024)
Where two headings read alike, the source gives them in different places.

How the values were obtained:
Caco-2 [1] = conditions: cited from earlier work
in vitro = conditions: human
Procedure: (§1) Leakage to the basolateral medium was determined using the BioTek Synergy H1 microplate reader (BioSPX, Abcoude, The Netherlands). […] Apparent permeability values (Papp) were calculated according to Equation (1):(1) Papp=dQ/dt×(1/A×C0) in which dQ/dt is the amount of drug transported over the barrier (ng/sec), A is the exposed area of the cell monolayer (cm^2) and C0 is the initial dose concentration of the compound (ng/mL). All measurements were performed under flow (17 µL/min), and the chip system was inside a cell culture incubator (37 °C, 5%CO2) during the entire experiment, as described in Section 2.6.
Apical and basolateral medium reservoirs were sampled at t = 0, 1, 2 and 4 h. All measurements were performed under flow (17 µL/min), and the chip system was inside a cell culture incubator (37 °C, 5% CO2) during the entire experiment, as described in Section 2.6.
For specific inhibition, 5 µM elacridar and 5 µM ketoconazole (both Sigma-Aldrich, Zwijndrecht, The Netherlands) were used. […]
For quantification, a standard of parental compounds and metabolites was prepared in the same medium as samples. […] A limit of quantification (LOQ) was determined for each compound based on the standard curve and a limit of detection (LOD) was determined based on a noise signal. […] Recovery was calculated as the percentage of original dose added to the system. […]

[2] = Permeability in cell-on-chip system under laminar flow, enteroid monolayers; conditions: human
Procedure: To add the culture disc with cells into the system, it was transferred to a biosafety cabinet, the chips were opened from the top and the discs were added to the chip, after which they were closed using a twisting cap mechanism. Sufficient medium was added to the chip to ensure no air bubbles were trapped during this procedure. Flow speed was adjusted to 17 µL/min and the system was placed back into a cell culture incubator (37 °C, 5% CO2). After a short period of equilibration, transport medium (with/without compound of interest) was added to apical and basolateral reservoirs, with the basolateral medium containing 4% BSA. […]
as §1, with “All measurements were performed under flow (17 µL/min), and the chip system was inside a cell culture incubator (37 °C, 5%CO2) during the entire experiment, as described in Section 2.6.” left out
For quantification, a standard of parental compounds and metabolites was prepared in the same medium as samples. […] A limit of quantification (LOQ) was determined for each compound based on the standard curve and a limit of detection (LOD) was determined based on a noise signal. […]

Caco-2 [3] = conditions: cited from earlier work; remark: listed apart in the source

Papp A→B (in vitro): 0.69 ×10⁻⁶ cm/s
Papp A→B [2]: 3.08 ×10⁻⁶ cm/s
SMILES: CC(C)NCC(O)COc1ccc(CC(N)=O)cc1 (stereo not drawn) [Atenolol, atenolol]
Papp A to B, Static (Caco-2 [1]; ref Sasaki 2022 [26]): 0.43 ×10⁻⁶ cm/s
Papp A to B, Static (Caco-2 [1]; ref Zhang 2024 [13]): 0.26 ×10⁻⁶ cm/s
Papp A to B, Flow (Caco-2 [3]; ref Sasaki 2022 [26]): 0.1 ×10⁻⁶ cm/s
Papp A to B, Flow (Caco-2 [3]; ref Zhang 2024 [13]): 0.72 ×10⁻⁶ cm/s
